According to article PMC11996858, “Cathepsin K cleavage of angiopoietin-2 creates detrimental Tie2 antagonist fragments in sepsis” (The Journal of Clinical Investigation, 2025):
No constants are given. Whether binding was seen depends on the method and setting. For part of these data: In cells and extracts the contact can be indirect. Some binding calls cover weakened binding; strength is not graded here.

The chains behind the UniProt entries cited, without tags or fusion partners. Where a name states a change or a piece, a line headed by the entry shows the natural chain unless it says otherwise. Residues count along the entry.
UniProt Q02763, residues 23-748: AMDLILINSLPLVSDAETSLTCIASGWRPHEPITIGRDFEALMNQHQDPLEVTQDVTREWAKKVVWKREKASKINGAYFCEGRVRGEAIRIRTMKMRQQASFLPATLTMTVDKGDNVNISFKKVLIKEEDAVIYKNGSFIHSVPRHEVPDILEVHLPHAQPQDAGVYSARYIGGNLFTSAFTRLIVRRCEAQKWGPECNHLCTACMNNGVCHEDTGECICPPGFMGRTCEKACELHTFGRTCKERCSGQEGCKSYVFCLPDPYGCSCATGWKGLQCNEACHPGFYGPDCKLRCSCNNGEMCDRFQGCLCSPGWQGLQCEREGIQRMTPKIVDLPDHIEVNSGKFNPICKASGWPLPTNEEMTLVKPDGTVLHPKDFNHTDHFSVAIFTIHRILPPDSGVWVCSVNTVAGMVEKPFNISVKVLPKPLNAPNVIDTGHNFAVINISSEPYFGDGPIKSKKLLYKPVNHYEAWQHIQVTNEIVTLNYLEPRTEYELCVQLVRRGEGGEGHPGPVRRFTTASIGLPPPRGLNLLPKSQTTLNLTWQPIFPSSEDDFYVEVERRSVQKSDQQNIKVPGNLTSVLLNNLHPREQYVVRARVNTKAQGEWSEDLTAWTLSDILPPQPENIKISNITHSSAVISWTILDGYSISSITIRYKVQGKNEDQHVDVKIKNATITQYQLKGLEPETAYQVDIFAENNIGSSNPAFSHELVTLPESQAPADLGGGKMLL
UniProt O15123: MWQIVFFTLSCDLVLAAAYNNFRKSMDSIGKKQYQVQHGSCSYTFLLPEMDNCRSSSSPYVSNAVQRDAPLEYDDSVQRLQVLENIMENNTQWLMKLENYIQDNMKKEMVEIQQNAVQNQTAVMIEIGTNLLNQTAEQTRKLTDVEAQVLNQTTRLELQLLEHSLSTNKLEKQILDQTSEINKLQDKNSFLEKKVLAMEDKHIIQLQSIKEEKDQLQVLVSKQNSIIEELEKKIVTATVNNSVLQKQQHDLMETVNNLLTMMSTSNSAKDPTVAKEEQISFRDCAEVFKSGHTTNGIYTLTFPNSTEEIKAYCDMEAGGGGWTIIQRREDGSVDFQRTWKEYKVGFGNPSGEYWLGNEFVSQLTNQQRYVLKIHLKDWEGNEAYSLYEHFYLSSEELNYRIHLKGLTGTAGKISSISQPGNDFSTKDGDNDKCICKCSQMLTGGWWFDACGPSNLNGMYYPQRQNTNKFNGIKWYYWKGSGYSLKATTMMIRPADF

Columns and labels:
Tie2-Fc = Tie2-Fc (UniProt Q02763); test: pull-down; Tie2-Fc as bait; details only in Supplemental Figure 5 and Supplemental Methods (not shown)
[1] = molecular target: cANGPT2_(25), cleavage product of recombinant ANGPT2 incubated with CM-Mq^LPS (human) (UniProt O15123); test: non-reducing SDS-PAGE with Western blot; recombinant ANGPT2 incubated with CM-Mq^Veh or CM-Mq^LPS (serum-free conditioned media of RAW264.7 cells), then SDS-PAGE under nonreducing conditions against reduced conditions (10% beta-mercaptoethanol) and Western analysis for ANGPT2; both purified

binding (Tie2-Fc) | binding [1] | Substance
binds |  | recombinant cANGPT2_(50), ANGPT2 (55S-496F) (from UniProt O15123 55-496) (domain or fragment)
binds |  | recombinant cANGPT2_(25), ANGPT2 (253E-496F) (from UniProt O15123 253-496) (domain or fragment)
 | no binding | cANGPT2_(25), cleavage product of recombinant ANGPT2 incubated with CM-Mq^LPS (from UniProt O15123 253-496) (domain or fragment)
